Source: the supplement of paper PMC12889115
This is one part of the list. Values are raw readings; no control value is given beside them.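 Primary screen: polymyxin B was added at a level permeabilizing Salmonella outer membranes while sparing inner membranes. DMSO wells, both with and without polymyxin B, established maximum growth. Plate-to-plate variation meant each plate was ranked on its own, and the lowest-OD600 compounds were selected as hits.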

System: Salmonella enterica serovar Typhimurium SL1344
Assay: bacterial growth OD600 after 18 h with compound and polymyxin B; higher = more bacterial growth (less inhibition)
Conditions: 50 µM, Mueller-Hinton broth

With `Cc1nonc1CN(C)C(=O)c1cc(COc2cccc(C(F)(F)F)c2)[nH]n1` the “bacterial growth OD600” value (polymyxin B 1 µg/mL) was 1.2.

In the case of `O=C(CCC1(Cc2ccccc2)CCC(=O)N1)NC1CCCc2ccccc21` (stereo unspecified), the “bacterial growth OD600” value (polymyxin B 0.75 µg/mL) was 0.98.

With `CN(C)c1cccc(C(=O)N2CCC3(CCCN(CC4CC4)C3)C2)c1` (stereo unspecified) the “bacterial growth OD600” value (polymyxin B 1 µg/mL) was 1.07.

In the case of `CCCNC(=O)N1CCC(N2CCCC(C(=O)NCc3ccccn3)C2)CC1` (stereo unspecified), the “bacterial growth OD600” value (polymyxin B 1 µg/mL) was 0.99.

In the case of `CO[C@H]1[C@H](NC(=O)c2ccncc2)c2ccccc2C12CCN(C(=O)C1(c3ccccc3)CC1)CC2`, the “bacterial growth OD600” value (polymyxin B 0.75 µg/mL) was 0.999.

For `Cc1ncc2c(c1CNC(=O)c1ccccc1F)CCN(C(=O)CCn1c(=O)[nH]c3ccccc31)C2`, the “bacterial growth OD600” value (polymyxin B 0.75 µg/mL) was 0.738.

`CCS(=O)(=O)N1CCCC(CCc2ccccc2)C1` (stereo unspecified) was tested, and the “bacterial growth OD600” value (polymyxin B 0.75 µg/mL) was 0.266.

With `COc1cccc(CCC(=O)N2CCCC(CCC(=O)NCc3ccccc3F)C2)c1` (stereo unspecified) the “bacterial growth OD600” value (polymyxin B 1 µg/mL) was 1.06.

In the case of `O=C(c1ccc(N2CC[C@H](O)C2)nc1)N1CCC(CCc2ccccc2)CC1`, the “bacterial growth OD600” value (polymyxin B 1 µg/mL) was 0.847.

`COc1ccc2cc(C(=O)C3CCCN(C(=O)c4cc5ccccc5oc4=O)C3)ccc2c1` (stereo unspecified) was tested, and the “bacterial growth OD600” value (polymyxin B 1 µg/mL) was 0.534.

With `CSCC(=O)NCc1cccnc1N1CCN(c2ccccc2C)CC1` the “bacterial growth OD600” value (polymyxin B 1 µg/mL) was 0.011.

In the case of `Cc1ccc(-c2cnnc(N3CCCC(OCc4ccccn4)C3)n2)o1` (stereo unspecified), the “bacterial growth OD600” value (polymyxin B 0.75 µg/mL) was 0.813.

With `CCN(CC1CCCN(CCc2cccc(F)c2)C1)C(=O)C1CC1` (stereo unspecified) the “bacterial growth OD600” value (polymyxin B 1 µg/mL) was 0.862.

`O=C(c1ccc2c3c(cccc13)CC2)C1CCCN(C(=O)c2ccc[n+]([O-])c2)C1` (stereo unspecified) was tested, and the “bacterial growth OD600” value (polymyxin B 1 µg/mL) was 0.951.

In the case of `COc1ccc(CCCNC(=O)c2ccc(N3CCN(C)C(=O)[C@@H]3C)nc2)cc1`, the “bacterial growth OD600” value (polymyxin B 0.75 µg/mL) was 0.834.

For `Cc1nnc(SCC(=O)N2CCCC(Nc3ccc(C)c(C)c3)C2)s1` (stereo unspecified), the “bacterial growth OD600” value (polymyxin B 1 µg/mL) was 0.831.

`Cc1nc(CN(C)C(=O)CC2(c3ccccc3C)CC(=O)N(Cc3cccnc3)C2=O)cs1` (stereo unspecified) was tested, and the “bacterial growth OD600” value (polymyxin B 0.75 µg/mL) was 0.816.

`O=C1CCC(C(=O)N2CCN(C3CCCC3)C(=O)C2)CN1CCN1CCOCC1` (stereo unspecified) was tested, and the “bacterial growth OD600” value (polymyxin B 1 µg/mL) was 0.991.

`C=CCN(CC=C)C(=O)C1CCC(=O)N(CCc2ccc(OC)cc2)C1` (stereo unspecified) was tested, and the “bacterial growth OD600” value (polymyxin B 1 µg/mL) was 0.919.

`COc1ccc(CN(C)C2CCCN(CCc3ccccc3)C2)cc1F` (stereo unspecified) was tested, and the “bacterial growth OD600” value (polymyxin B 1 µg/mL) was 0.769.

In the case of `Cc1c(C(=O)N2CCN(C(=O)c3ccco3)CC2)sc2ncnc(NCCc3ccccc3)c12`, the “bacterial growth OD600” value (polymyxin B 0.75 µg/mL) was 0.773.

For `COc1ccc(NC(=O)CCC2CCCN(Cc3cnc(SC)nc3)C2)cc1Cl` (stereo unspecified), the “bacterial growth OD600” value (polymyxin B 1 µg/mL) was 0.884.

For `CCN1CCN(CC(=O)NCc2ccc3[nH]c(-c4ccc(F)cc4)c(C)c3c2)CC1`, the “bacterial growth OD600” value (polymyxin B 1 µg/mL) was 1.08.

With `COc1cccc(C(=O)N2CCCC(CCC(=O)NCc3ccccc3Cl)C2)c1OC` (stereo unspecified) the “bacterial growth OD600” value (polymyxin B 1 µg/mL) was 1.16.

With `C=C(C)CNC(=O)c1cc(CN2CCOCC2)on1` the “bacterial growth OD600” value (polymyxin B 1 µg/mL) was 1.06.

With `Cc1cccn2c(CNCC(C)(C)N3CCOCC3)c(C(=O)N3CCCCC3)nc12` the “bacterial growth OD600” value (polymyxin B 1 µg/mL) was 0.805.

For `CC(C)CCN1CCOc2ccc(C(O)Cc3ccccc3)cc2C1` (stereo unspecified), the “bacterial growth OD600” value (polymyxin B 0.75 µg/mL) was 0.936.

For `COC(=O)CCCC(=O)N1CCc2[nH]nc(-c3ccc(C(F)(F)F)cc3)c2C1`, the “bacterial growth OD600” value (polymyxin B 0.75 µg/mL) was 0.926.

In the case of `CCOC(=O)N1CCN(C(=O)c2ccc(N3CCC(NCCn4nc(C)cc4C)CC3)cc2)CC1`, the “bacterial growth OD600” value (polymyxin B 0.75 µg/mL) was 0.818.

For `COC(=O)c1ccc(CN2CCC(CO)(Cc3ccccc3Cl)CC2)cc1`, the “bacterial growth OD600” value (polymyxin B 0.75 µg/mL) was 0.757.

`Cc1ccc(CN2C[C@H]3OC(=O)N(C4CCCC4)[C@H]3C2)cc1C` was tested, and the “bacterial growth OD600” value (polymyxin B 0.75 µg/mL) was 0.544.
